The test has as its target full-length PML-WT (PML isoform IV), mammalian two-hybrid fusions (human) (UniProt P29590). Briefly: two-hybrid; CheckMate mammalian two-hybrid (Promega) in HeLa Pml-/- cells; pG5-luc, pBIND-PML and pACT-PML at 1:1:1; dual-luciferase read-out 24 h after transfection; normalised to pACT vector:pBIND-PML = 1.

Results are given in words; binding and its absence hold for the method and conditions named. Some binding calls cover weakened binding; strength is not graded here.

Take “full-length PML-WT (PML isoform IV), mammalian two-hybrid fusions (from UniProt P29590-5 1-633)”: the binding entry is given as “binds”.

The values are drawn from article PMC11589706, “Cryo-EM structure of PML RBCC dimer reveals CC-mediated octopus-like nuclear body assembly mechanism” (Cell Discovery, 2024).
